Measured data: PubChem BioAssay AID1053208 (Peter MacCallum Cancer Centre, 2014)
Screen: 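Genes whose silencing cuts survival of bone tumour cells only with doxorubicin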 (primary screen). System: mouse osteosarcoma cells, early-passage culture from an engineered mouse model of fibroblastic bone tumour. Reagent: siRNA pool against mouse genes, 40 nM. Timing: about 120 h (48 h before drug, then 72 h with drug). Treatment: doxorubicin 100 nM for 72 h, roughly 30-40% inhibitory dose. Read-out: 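Luminescent ATP signal taken as viability with or without 100 nM doxorubicin for 72 h; mean of two wells set against non-targeting siRNA and turned into robust z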. Direction: viability z-score with doxorubicin: higher = more viable cells under doxorubicin; viability z-score without drug: higher = more viable cells with knock-down alone. Hit rule: 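a pool counts as active when its viability z-score with doxorubicin is -2 or below and its z-score without drug lies between -2 and 2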.
In all, the deposit lists about 17,000 reagents; this is a random part of them. 788 of all reagents (4.7%) were called active. 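Calls rest on z-score classes alone; an extra cut-off of viability at most 70% of control was not applied to them.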 Entries without a mark were called inactive. Not all columns of the deposit are shown.

no.	Target gene	combined z-score class	viability z-score with doxorubicin	viability z-score without drug
1	Sel1l	no change with or without drug	-0.22	-0.51
2	Zfand6	no change with or without drug	0.34	-1.69
3	Piwil1	no change with or without drug	0.34	0.84
4	Dhx30	no change with or without drug	0.79	1.35
5	Tmem147	no change with or without drug	-0.45	0
6	BC051019	no change with or without drug	-1.12	-0.34
7	Dlx3	no change with or without drug	-0.11	-0.17
8	Kcnj14	no change with or without drug	-1.24	-1.52
9	Nagk	no change with or without drug	0.56	1.52
10	Il1rl2	no change with or without drug	-0.79	0.51
11	Dcaf5	no change with or without drug	0.67	-0.17
12	Rhov	high cell count with doxorubicin only	2.02	1.69
13	Tnfrsf11a	no change with or without drug	-0.45	0.67
14	Mtm1	no change with or without drug	1.8	-0.84
15	Nudt11	high cell count without drug only	0.79	2.19
16	Slc38a4	no change with or without drug	-0.79	-0.51
17	Zdhhc3	low cell count with doxorubicin only (active)	-2.36	0.51
18	Cd209c	no change with or without drug	0.22	0.51
19	Dlx2	no change with or without drug	0.45	0.34
20	Slco1a1	no change with or without drug	1.8	-0.51
21	Arfrp1	no change with or without drug	-0.67	0
22	Triqk	no change with or without drug	0.45	0.84
23	Cd55b	no change with or without drug	0.45	0.34
24	L1cam	no change with or without drug	-0.9	0.34
25	Rnf182	no change with or without drug	0	-0.51
26	Ncbp2as2	no change with or without drug	-1.12	0.17
27	Gprc5c	high cell count with doxorubicin only	2.02	1.52
28	Lamtor3	high cell count without drug only	1.35	2.7
29	Wnt3	no change with or without drug	0.11	-0.17
30	Abcc5	no change with or without drug	-0.67	1.01
31	Mrtfa	no change with or without drug	-1.35	-1.18
32	Opalin	no change with or without drug	0.34	1.18
33	Cep83	high without drug; low with doxorubicin	-2.59	2.36
34	Or4d6	no change with or without drug	-1.12	-0.84
35	Tex14	no change with or without drug	-1.24	0
36	Nr1i3	no change with or without drug	1.8	0.84
37	Fignl1	no change with or without drug	0.67	0.67
38	Nsdhl	no change with or without drug	1.12	-0.67
39	Lsm14b	no change with or without drug	1.57	0.84
40	Cplx2	no change with or without drug	-0.22	1.18
41	Ndufb11b	no change with or without drug	1.01	0.51
42	Scd3	no change with or without drug	0.67	0.17
43	Cpt2	no change with or without drug	0.79	-1.18
44	Or14j1	no change with or without drug	-0.9	-1.18
45	Cndp2	no change with or without drug	-1.35	0.34
46	Slc7a1	high cell count with and without drug	3.26	2.7
47	Cmtm2b	no change with or without drug	-0.9	-1.01
48	Glmn	no change with or without drug	0.56	1.69
49	Aanat	no change with or without drug	0.45	0.84
50	Park7	no change with or without drug	1.57	0.17

Records above with an active call:
Target gene	combined z-score class	viability z-score with doxorubicin	viability z-score without drug
Zdhhc3	low cell count with doxorubicin only (active)	-2.36	0.51
